By UniProt entry, the sequences of proteins in these tests, tags left out.
UniProt O94986: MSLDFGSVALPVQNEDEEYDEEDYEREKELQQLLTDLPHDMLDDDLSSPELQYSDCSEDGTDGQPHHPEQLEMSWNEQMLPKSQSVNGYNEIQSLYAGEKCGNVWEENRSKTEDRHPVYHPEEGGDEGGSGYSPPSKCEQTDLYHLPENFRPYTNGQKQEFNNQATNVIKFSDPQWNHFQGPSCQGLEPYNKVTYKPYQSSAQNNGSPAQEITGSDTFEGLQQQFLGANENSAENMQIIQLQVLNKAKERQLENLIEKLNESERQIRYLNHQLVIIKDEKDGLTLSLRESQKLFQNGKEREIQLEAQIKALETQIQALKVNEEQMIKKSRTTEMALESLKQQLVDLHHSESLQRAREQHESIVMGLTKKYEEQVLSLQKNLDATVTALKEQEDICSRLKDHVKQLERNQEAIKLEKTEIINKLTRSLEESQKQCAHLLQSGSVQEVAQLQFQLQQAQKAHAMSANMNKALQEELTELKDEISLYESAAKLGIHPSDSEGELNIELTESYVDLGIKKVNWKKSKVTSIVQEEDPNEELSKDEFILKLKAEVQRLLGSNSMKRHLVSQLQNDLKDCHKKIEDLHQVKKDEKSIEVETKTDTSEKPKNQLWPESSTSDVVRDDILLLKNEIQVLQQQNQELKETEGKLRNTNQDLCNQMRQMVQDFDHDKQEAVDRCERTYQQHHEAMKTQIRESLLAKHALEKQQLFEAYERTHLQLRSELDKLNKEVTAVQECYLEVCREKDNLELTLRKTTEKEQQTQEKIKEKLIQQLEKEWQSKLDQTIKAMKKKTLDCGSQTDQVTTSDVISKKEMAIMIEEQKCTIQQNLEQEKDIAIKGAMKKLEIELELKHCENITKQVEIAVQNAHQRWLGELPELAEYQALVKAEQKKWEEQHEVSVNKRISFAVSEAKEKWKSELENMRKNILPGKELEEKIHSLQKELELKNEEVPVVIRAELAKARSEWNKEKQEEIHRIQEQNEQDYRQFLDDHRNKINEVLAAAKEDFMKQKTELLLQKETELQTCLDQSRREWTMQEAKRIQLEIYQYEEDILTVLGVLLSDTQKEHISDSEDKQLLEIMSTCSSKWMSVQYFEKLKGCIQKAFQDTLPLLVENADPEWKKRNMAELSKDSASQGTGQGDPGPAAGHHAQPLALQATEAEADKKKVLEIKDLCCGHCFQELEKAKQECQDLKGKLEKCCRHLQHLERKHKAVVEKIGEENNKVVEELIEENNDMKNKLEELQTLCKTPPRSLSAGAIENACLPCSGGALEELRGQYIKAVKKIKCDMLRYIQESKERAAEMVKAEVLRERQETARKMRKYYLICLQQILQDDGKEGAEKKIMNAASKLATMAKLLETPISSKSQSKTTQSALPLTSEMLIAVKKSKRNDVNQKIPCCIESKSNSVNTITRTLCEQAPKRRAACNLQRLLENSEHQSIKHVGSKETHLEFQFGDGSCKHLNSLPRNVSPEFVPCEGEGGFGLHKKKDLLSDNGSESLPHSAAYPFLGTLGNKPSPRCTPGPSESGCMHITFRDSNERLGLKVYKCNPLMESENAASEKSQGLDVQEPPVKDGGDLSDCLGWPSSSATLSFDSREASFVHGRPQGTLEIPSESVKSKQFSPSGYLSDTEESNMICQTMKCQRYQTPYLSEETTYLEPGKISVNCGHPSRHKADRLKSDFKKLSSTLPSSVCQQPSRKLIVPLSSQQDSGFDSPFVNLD

According to PMC4530586, “STIL binding to Polo-box 3 of PLK4 regulates centriole duplication” (eLife, 2015):

Biological target: T1, S-peptide-EGFP-tagged PLK4 fragment (residues 570–970) comprising the three Polo-boxes PB1-3 (human) (UniProt O00444)
T1 sequence: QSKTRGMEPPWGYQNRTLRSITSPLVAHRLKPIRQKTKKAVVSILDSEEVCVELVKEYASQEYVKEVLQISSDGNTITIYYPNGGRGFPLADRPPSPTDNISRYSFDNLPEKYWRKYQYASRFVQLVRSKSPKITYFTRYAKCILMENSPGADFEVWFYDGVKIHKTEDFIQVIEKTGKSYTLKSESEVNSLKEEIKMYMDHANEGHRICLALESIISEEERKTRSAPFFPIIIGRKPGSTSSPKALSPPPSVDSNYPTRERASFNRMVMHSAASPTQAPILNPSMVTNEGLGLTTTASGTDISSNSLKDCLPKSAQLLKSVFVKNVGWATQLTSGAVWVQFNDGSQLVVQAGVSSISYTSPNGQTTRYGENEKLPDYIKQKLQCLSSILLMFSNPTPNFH
Assay: affinity purification with mass spectrometry; S-peptide pulldown (S-protein agarose) of the S-peptide-EGFP-PLK4 fragment from extracts of U2OS Flp-In T-REx cells induced 24 hr with tetracycline; co-purifying proteins found by mass spectrometry

binding: binds
Substance: Cep152 (from UniProt O94986 1-1710)

These are yes or no findings as the source states them, for the method shown. Binding seen in cells or lysates may run through a third protein. Here binding means that the protein was enriched with, or labelled near, the bait; the list need not be complete. Where a sequence is shown, tags or fusion partners need not be part of it.
